From the supplement of paper PMC10849652 come the findings set out here.

Chains of the proteins cited; added tags and fusions are not shown. Lines headed by an entry give the natural chain unless they say otherwise; changes in a name come on top.
UniProt Q69YN4: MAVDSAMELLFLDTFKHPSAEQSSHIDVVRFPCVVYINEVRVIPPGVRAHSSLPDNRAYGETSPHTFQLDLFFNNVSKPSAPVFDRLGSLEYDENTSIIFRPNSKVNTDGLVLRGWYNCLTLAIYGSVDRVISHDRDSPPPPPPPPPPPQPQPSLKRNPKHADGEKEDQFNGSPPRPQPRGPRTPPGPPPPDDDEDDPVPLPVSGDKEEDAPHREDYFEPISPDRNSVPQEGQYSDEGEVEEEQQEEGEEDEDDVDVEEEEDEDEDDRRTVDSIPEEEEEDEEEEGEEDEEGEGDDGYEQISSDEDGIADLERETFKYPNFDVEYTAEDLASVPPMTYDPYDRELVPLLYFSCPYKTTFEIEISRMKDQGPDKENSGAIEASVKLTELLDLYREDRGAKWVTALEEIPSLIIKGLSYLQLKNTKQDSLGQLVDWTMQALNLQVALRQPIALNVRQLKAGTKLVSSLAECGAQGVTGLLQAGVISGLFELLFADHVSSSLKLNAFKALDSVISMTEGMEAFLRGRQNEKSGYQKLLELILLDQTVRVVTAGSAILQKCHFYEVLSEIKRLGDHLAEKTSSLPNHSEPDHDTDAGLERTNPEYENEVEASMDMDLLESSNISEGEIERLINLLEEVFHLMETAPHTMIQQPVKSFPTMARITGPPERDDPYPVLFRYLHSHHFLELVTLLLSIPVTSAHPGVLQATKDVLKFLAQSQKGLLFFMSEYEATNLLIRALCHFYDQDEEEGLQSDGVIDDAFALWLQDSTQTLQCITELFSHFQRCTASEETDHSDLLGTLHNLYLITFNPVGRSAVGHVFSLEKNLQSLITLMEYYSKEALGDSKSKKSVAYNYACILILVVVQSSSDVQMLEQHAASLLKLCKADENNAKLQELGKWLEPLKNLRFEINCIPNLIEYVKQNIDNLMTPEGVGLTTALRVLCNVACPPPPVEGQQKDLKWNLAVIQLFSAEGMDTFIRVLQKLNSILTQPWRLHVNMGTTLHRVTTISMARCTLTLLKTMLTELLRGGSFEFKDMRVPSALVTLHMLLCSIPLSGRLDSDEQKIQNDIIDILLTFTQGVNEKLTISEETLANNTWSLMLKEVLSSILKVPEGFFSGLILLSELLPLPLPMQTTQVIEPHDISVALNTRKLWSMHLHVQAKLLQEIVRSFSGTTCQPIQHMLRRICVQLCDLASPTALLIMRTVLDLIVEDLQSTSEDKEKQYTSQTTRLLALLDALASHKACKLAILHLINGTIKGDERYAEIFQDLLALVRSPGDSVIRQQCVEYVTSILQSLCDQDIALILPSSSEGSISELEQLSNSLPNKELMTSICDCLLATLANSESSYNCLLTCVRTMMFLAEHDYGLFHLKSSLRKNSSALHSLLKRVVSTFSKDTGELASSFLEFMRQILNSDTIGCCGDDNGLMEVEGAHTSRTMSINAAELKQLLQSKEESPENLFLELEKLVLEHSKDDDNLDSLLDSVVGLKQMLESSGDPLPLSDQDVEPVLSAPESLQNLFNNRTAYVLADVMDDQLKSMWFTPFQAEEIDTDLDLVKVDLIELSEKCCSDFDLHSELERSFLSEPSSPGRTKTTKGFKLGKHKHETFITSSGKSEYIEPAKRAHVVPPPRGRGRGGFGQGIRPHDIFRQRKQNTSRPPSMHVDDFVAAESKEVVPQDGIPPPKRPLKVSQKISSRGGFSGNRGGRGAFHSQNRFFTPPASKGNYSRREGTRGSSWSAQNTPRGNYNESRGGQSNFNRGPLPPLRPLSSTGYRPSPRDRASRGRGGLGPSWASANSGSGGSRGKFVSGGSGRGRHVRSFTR
UniProt O14957: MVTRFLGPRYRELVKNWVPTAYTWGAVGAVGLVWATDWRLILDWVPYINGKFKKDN
UniProt Q96RL1: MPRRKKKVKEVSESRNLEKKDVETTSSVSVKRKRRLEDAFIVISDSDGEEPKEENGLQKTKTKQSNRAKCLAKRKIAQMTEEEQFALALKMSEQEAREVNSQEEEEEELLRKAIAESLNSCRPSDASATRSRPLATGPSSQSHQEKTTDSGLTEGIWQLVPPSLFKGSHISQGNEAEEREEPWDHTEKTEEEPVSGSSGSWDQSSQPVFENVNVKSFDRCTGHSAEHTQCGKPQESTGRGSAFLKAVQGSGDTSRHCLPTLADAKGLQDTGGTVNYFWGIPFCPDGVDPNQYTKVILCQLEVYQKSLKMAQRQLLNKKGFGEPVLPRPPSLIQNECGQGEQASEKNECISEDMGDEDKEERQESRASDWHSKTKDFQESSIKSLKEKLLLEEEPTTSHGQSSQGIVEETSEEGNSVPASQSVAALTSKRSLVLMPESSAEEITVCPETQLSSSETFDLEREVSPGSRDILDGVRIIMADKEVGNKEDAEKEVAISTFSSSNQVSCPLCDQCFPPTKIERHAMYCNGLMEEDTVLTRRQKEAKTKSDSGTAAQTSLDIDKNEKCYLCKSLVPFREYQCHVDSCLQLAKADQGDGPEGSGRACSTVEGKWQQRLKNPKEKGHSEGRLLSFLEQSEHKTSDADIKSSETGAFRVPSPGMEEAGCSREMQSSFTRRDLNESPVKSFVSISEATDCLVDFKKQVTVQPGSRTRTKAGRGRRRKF
UniProt P45974: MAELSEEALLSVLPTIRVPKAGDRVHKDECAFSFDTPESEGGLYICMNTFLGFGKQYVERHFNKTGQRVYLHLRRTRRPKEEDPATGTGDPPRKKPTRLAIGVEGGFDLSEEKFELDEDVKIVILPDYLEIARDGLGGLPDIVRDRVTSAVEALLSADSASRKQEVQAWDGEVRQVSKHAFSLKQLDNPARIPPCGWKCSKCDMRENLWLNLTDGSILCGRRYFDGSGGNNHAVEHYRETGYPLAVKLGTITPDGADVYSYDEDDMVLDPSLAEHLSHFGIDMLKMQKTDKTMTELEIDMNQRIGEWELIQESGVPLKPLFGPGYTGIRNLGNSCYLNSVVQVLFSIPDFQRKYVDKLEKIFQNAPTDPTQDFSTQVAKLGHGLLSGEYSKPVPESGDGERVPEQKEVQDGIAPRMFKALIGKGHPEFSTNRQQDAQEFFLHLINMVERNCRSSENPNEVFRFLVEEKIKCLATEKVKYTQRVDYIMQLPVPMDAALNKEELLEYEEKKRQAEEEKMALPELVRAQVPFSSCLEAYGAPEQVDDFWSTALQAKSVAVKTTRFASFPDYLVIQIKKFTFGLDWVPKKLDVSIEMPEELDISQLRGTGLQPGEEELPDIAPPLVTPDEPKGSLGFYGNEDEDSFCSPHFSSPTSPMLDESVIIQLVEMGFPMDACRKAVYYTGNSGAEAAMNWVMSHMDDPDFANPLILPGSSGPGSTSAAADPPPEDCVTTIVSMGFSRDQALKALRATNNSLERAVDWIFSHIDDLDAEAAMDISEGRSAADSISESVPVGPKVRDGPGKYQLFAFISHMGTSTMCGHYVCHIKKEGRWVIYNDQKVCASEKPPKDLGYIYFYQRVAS
UniProt P07919: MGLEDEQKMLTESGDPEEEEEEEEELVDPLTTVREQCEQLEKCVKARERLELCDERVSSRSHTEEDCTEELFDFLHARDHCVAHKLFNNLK
UniProt P55072, whole entry, looked up: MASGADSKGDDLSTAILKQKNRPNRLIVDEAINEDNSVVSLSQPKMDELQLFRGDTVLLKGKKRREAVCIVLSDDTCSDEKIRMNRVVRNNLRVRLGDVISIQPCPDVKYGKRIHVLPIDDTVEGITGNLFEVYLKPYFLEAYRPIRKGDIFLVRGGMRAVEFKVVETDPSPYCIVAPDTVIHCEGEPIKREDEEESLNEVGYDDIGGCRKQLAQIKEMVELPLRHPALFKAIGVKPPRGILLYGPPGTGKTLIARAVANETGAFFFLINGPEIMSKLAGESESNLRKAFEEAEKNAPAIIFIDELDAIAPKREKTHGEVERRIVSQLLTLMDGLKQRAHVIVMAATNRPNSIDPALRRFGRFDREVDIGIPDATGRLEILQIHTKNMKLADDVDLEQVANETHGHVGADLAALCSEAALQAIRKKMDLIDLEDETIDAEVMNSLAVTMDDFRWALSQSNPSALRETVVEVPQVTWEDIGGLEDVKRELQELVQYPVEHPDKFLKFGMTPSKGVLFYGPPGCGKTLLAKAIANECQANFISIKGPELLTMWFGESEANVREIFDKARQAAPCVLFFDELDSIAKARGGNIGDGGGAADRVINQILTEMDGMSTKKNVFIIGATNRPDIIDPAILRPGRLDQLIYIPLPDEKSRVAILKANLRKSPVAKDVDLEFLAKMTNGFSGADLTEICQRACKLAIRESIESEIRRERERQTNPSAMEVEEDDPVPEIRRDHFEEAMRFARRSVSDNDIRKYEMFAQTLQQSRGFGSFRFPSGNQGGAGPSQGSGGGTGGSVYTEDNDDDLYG
UniProt Q8IZJ1, whole entry, looked up: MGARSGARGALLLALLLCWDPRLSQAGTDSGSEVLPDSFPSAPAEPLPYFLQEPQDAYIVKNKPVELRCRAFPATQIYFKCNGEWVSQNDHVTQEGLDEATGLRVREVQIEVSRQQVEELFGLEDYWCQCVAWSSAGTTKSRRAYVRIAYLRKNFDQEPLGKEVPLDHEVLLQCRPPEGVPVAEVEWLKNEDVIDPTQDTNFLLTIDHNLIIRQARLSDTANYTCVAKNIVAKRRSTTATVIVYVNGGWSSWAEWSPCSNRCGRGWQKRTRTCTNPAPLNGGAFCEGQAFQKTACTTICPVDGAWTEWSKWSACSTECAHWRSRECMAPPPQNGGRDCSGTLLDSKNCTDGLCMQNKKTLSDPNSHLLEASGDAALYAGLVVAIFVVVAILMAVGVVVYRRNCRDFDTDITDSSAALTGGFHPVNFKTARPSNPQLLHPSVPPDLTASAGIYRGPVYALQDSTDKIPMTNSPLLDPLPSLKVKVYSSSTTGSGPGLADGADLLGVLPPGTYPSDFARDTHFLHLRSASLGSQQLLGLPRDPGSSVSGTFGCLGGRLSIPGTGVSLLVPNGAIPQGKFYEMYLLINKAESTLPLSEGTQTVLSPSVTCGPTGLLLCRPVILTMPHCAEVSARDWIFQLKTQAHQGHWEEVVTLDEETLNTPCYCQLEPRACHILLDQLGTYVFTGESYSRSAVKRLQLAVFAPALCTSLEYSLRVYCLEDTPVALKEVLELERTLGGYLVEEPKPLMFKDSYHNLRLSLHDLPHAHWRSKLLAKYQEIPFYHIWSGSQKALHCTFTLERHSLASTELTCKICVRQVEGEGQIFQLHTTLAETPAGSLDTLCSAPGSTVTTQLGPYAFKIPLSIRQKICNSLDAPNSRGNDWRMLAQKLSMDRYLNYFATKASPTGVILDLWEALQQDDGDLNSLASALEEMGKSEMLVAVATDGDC
UniProt Q9BZM5, whole entry, looked up: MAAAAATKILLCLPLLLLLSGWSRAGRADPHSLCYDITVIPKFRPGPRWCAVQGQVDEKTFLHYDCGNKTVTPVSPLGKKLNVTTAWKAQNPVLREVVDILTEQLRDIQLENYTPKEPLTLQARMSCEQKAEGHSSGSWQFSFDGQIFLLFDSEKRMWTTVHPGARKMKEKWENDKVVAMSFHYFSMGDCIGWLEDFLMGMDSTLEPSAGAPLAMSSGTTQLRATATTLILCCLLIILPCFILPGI
UniProt Q86UV5: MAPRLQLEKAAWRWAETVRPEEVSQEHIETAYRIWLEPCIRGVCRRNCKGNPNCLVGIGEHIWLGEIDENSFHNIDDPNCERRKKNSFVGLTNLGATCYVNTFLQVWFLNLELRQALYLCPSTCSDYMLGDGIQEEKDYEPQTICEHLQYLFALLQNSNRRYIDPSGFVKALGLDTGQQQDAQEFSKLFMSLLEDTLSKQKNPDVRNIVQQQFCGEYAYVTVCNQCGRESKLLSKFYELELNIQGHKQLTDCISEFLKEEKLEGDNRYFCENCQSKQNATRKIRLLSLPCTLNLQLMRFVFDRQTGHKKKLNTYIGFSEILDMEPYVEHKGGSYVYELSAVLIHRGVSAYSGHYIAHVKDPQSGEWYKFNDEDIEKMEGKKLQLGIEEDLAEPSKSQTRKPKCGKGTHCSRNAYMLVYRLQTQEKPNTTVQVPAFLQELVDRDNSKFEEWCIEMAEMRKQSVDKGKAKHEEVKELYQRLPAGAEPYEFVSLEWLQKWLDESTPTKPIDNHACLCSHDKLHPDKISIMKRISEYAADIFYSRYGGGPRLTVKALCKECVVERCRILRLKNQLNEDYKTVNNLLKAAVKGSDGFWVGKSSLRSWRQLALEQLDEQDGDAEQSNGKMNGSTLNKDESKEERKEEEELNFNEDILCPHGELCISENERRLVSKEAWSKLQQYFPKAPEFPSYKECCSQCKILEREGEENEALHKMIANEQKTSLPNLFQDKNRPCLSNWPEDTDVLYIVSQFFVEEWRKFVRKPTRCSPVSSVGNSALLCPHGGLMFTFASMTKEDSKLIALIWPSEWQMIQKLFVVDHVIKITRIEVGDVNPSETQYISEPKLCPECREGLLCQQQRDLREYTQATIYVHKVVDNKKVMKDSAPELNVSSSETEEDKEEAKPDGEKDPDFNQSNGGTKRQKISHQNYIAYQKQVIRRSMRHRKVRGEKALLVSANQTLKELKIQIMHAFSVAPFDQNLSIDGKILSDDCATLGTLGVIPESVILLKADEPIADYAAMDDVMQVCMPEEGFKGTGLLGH

The list shows a part of the results.

Compound in the test: C[C@H](C1=CC=C(C=C1)C(=O)NC2=C3C=CNC3=NC=C2)N
The test is described as follows: log2 fold change, soluble protein after heating vs DMSO (PISA); higher = thermal stabilisation; K562 lysate, 10 uM; active = over 0.2 and 3.5 SD of the protein, either way, in both replicates (recomputed). An outline of the steps: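 Values give the log-two fold change in thermal stability against solvent controls, from duplicates. Crude K562 extract at 1 mg/mL protein, made by dounce homogenisation in PBS pH 7.4 with 1 mM MgCl2, was treated with 10 μM compound for 30 min. After 3 min heating across 48°C-58°C, aliquots were pooled, adjusted to 0.5% NP-40 at 4°C and centrifuged at 21,000xg for 90 min. The supernatant was measured by TMTpro 16plex LC-MS/MS with channel sums equalised.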
Turning to UGDH (UniProt O60701), the log2 fold change is inactive: 0.037.

As to USP32 (UniProt Q8NFA0), the log2 fold change is inactive: -0.036.

For the target VIRMA (UniProt Q69YN4), the log2 fold change is inactive: 0.022.

On to UFD1 isoform 1 (UniProt Q92890), for which the log2 fold change was inactive: -0.031.

In the case of VANGL1 (UniProt Q8TAA9), the log2 fold change is inactive: 0.07.

Turning to VARS2, A0A0G2JL52, the log2 fold change was inactive: -0.125.

Take UFC1 (UniProt Q9Y3C8): the log2 fold change is inactive: 0.088.

Turning to UQCR11 (UniProt O14957), the log2 fold change is inactive: 0.1.

On to UIMC1 (UniProt Q96RL1), for which the log2 fold change is inactive: 0.027.

As to UTP6 (UniProt Q9NYH9), the log2 fold change was inactive: -0.144.

In the case of UQCRB (UniProt P14927), the log2 fold change is inactive: -0.028.

Turning to USP5 isoform 2 (UniProt P45974), the log2 fold change was inactive: -0.012.

Take UGGT2 (UniProt Q9NYU1): the log2 fold change is inactive: -0.014.

As for UQCRH (UniProt P07919), the log2 fold change is inactive: -0.056.

For the target VCP (UniProt P55072), the log2 fold change was inactive: 0.057.

For UHRF1BP1 (UniProt Q6BDS2), the log2 fold change was inactive: -0.081.

Regarding UNC5B (UniProt Q8IZJ1), the log2 fold change is inactive: 0.29.

In the case of VCX3B (UniProt Q9H321), the log2 fold change was inactive: -0.045.

Take UHRF1BP1L (UniProt A0JNW5): the log2 fold change is inactive: 0.002.

On to UNC45A (UniProt Q9H3U1), for which the log2 fold change is inactive: 0.019.

Turning to UPF3B (UniProt Q9BZI7), the log2 fold change was inactive: -0.171.

Take UGGT1 (UniProt Q9NYU2): the log2 fold change is inactive: -0.026.

As for VAMP2 (UniProt P63027), the log2 fold change was inactive: 0.062.

Turning to USP1 (UniProt O94782), the log2 fold change was inactive: -0.027.

USP13 (UniProt Q92995): the log2 fold change is inactive: -0.064.

With UFL1 (UniProt O94874), the log2 fold change is inactive: 0.025.

Consider USP4 (UniProt Q13107), for which the log2 fold change was inactive: 0.036.

As to VARS (UniProt P26640), the log2 fold change was inactive: -0.004.

Take ULBP2 (UniProt Q9BZM5): the log2 fold change was inactive: 0.008.

With UXS1 isoform 2 (UniProt Q8NBZ7), the log2 fold change was inactive: 0.047.

In the case of USE1 (UniProt Q9NZ43), the log2 fold change is inactive: 0.039.

As to USP48 isoform 8 (UniProt Q86UV5), the log2 fold change is inactive: -0.006.
